Reference: article PMC12661054, “The CIP2A-TOPBP1 axis facilitates mitotic DNA repair via MiDAS and MMEJ” (Nature Communications, 2025)
No constants are given. Whether binding was seen depends on the method and setting. Binding seen in cells or lysates may run through a third protein. Some results given as binding are weak or reduced against the parent protein; the word gives no strength.

Amino acid sequences for entries named in this document (tags omitted). A change or cut given only in a name is not applied to a line headed by its entry.
UniProt Q92547: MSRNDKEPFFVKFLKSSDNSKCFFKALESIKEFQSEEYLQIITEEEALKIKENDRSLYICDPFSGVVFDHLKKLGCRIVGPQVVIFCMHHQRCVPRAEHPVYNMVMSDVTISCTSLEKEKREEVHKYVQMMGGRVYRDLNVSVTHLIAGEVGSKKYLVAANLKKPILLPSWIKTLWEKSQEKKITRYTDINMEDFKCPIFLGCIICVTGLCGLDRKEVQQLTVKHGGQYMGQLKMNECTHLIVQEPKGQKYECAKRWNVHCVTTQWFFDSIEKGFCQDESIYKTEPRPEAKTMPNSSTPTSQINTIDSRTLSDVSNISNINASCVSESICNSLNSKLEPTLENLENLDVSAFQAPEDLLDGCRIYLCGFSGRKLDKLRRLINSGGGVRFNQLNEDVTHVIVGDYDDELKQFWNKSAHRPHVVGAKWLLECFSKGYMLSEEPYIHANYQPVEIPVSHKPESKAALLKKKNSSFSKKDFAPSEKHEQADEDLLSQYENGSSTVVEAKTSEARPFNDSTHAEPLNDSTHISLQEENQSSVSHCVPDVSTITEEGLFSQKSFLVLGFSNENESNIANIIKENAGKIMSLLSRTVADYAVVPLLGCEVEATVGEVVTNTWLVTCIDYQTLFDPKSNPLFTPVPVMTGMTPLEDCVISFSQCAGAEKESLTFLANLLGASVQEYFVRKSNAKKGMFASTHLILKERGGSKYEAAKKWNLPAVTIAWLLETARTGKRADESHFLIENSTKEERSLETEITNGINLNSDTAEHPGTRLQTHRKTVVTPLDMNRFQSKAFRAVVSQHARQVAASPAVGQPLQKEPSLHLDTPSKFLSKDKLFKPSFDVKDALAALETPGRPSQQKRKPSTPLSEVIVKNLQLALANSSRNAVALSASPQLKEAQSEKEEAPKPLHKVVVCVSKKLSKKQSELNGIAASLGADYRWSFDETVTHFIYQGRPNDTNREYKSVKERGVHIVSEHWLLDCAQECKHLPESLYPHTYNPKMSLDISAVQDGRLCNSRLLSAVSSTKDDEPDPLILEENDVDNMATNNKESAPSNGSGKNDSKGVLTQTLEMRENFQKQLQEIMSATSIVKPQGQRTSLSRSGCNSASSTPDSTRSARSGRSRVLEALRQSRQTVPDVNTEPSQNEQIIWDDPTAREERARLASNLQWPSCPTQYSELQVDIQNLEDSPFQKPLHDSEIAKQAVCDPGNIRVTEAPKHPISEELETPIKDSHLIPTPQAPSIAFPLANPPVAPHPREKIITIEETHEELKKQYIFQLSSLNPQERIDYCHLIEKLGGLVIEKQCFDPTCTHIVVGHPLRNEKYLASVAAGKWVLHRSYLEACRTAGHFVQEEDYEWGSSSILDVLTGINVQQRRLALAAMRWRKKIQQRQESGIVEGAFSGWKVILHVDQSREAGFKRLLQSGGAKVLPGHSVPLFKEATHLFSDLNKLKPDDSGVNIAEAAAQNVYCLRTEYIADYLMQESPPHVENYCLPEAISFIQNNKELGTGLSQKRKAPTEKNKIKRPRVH
UniProt Q8IY92: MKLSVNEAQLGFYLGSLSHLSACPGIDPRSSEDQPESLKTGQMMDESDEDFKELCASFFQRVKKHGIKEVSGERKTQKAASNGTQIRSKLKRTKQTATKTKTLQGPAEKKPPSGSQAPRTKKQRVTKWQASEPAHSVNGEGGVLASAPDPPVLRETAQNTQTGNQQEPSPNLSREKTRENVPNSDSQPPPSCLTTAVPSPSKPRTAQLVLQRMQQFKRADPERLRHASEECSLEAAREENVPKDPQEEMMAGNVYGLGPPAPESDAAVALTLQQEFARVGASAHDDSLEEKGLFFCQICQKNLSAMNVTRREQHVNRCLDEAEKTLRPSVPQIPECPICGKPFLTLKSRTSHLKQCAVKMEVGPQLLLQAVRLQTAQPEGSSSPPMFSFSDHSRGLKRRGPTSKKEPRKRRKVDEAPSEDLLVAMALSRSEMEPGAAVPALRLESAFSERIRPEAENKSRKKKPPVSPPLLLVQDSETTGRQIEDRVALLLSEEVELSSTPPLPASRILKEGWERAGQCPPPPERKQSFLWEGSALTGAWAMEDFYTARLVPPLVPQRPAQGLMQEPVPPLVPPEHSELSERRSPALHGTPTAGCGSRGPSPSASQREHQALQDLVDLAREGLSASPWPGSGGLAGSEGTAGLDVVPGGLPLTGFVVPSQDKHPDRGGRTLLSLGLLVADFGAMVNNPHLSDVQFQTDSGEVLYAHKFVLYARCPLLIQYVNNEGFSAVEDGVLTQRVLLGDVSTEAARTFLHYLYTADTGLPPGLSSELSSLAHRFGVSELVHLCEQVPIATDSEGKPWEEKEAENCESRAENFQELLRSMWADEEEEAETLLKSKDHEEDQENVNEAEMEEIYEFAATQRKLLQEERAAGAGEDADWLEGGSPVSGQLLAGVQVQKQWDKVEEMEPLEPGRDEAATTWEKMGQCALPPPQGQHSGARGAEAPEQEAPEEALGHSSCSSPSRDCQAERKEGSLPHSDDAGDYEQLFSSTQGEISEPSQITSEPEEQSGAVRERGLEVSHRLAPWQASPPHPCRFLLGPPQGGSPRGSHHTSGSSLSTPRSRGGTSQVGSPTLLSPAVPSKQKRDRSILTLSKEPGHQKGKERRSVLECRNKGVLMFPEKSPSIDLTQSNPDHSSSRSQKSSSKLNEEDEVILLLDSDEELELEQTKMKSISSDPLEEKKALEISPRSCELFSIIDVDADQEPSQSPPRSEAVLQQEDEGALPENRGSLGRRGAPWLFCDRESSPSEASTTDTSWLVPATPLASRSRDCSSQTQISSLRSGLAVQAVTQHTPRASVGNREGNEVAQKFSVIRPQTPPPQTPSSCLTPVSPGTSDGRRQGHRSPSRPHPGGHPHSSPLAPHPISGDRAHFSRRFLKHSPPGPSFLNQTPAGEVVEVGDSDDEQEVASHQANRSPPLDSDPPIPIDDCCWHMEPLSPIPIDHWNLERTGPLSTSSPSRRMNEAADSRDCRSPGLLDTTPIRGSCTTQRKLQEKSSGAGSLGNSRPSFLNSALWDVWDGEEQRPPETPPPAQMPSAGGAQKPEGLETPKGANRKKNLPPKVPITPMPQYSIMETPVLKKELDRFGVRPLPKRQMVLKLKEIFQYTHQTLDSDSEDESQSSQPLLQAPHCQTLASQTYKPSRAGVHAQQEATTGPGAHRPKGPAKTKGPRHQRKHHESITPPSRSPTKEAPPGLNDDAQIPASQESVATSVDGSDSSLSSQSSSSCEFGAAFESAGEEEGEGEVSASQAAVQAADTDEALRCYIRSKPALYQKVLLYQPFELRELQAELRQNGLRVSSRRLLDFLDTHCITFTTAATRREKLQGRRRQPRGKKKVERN

Columns and labels:
[1] = target: eGFP-TOPBP1 WT (human) (UniProt Q92547); experiment: co-IP; GFP-Trap agarose from benzonase-treated whole-cell lysates of transfected HEK293TN cells (nocodazole 100 ng/ml 18 h; in some panels asynchronous cells or 7 µM RO-3306 for 30 min); 200 mM NaCl, 0.2% Igepal, pH 7.5, 4 °C; western blot
[2] = target: eGFP-TOPBP1 WT (human) (UniProt Q92547); experiment: co-IP; GFP-Trap co-IP from the chromatin fraction of transfected HEK293TN cells treated with 100 ng/ml nocodazole for 18 h; western blot
[3] = target: eGFP-TOPBP1 1 + 2 (K155E + K250E) (human) (UniProt Q92547); experiment: as above
[4] = target: eGFP-SLX4 WT (human) (UniProt Q8IY92); experiment: co-IP; GFP-Trap agarose from benzonase-treated whole-cell lysates of transfected HEK293TN cells (nocodazole 100 ng/ml 18 h; in some panels asynchronous cells or 7 µM RO-3306 for 30 min); 200 mM NaCl, 0.2% Igepal, pH 7.5, 4 °C; western blot
[5] = target: eGFP-SLX4 WT (human) (UniProt Q8IY92); experiment: co-IP; GFP-Trap co-IP from the chromatin fraction of transfected HEK293TN cells treated with 100 ng/ml nocodazole for 18 h; western blot
[6] = target: eGFP-SLX4 T1260A (human) (UniProt Q8IY92); experiment: as above

Measured: binding

B1: TOP3A (endogenous) (protein, UniProt Q13472 1-1001)
chain: MIFPVARYALRWLRRPEDRAFSRAAMEMALRGVRKVLCVAEKNDAAKGIADLLSNGRMRRREGLSKFNKIYEFDYHLYGQNVTMVMTSVSGHLLAHDFQMQFRKWQSCNPLVLFEAEIEKYCPENFVDIKKTLERETRQCQALVIWTDCDREGENIGFEIIHVCKAVKPNLQVLRARFSEITPHAVRTACENLTEPDQRVSDAVDVRQELDLRIGAAFTRFQTLRLQRIFPEVLAEQLISYGSCQFPTLGFVVERFKAIQAFVPEIFHRIKVTHDHKDGIVEFNWKRHRLFNHTACLVLYQLCVEDPMATVVEVRSKPKSKWRPQALDTVELEKLASRKLRINAKETMRIAEKLYTQGYISYPRTETNIFPRDLNLTVLVEQQTPDPRWGAFAQSILERGGPTPRNGNKSDQAHPPIHPTKYTNNLQGDEQRLYEFIVRHFLACCSQDAQGQETTVEIDIAQERFVAHGLMILARNYLDVYPYDHWSDKILPVYEQGSHFQPSTVEMVDGETSPPKLLTEADLIALMEKHGIGTDATHAEHIETIKARMYVGLTPDKRFLPGHLGMGLVEGYDSMGYEMSKPDLRAELEADLKLICDGKKDKFVVLRQQVQKYKQVFIEAVAKAKKLDEALAQYFGNGTELAQQEDIYPAMPEPIRKCPQCNKDMVLKTKKNGGFYLSCMGFPECRSAVWLPDSVLEASRDSSVCPVCQPHPVYRLKLKFKRGSLPPTMPLEFVCCIGGCDDTLREILDLRFSGGPPRASQPSGRLQANQSLNRMDNSQHPQPADSRQTGSSKALAQTLPPPTAAGESNSVTCNCGQEAVLLTVRKEGPNRGRQFFKCNGGSCNFFLWADSPNPGAGGPPALAYRPLGASLGCPPGPGIHLGGFGNPGDGSGSGTSCLCSQPSVTRTVQKDGPNKGRQFHTCAKPREQQCGFFQWVDENTAPGTSGAPSWTGDRGRTLESEARSKRPRASSSDMGSTAKKPRKCSLCHQPGHTRPFCPQNR
binds: [1]

B2: ERCC1 (endogenous) (protein, UniProt P07992 1-297)
chain: MDPGKDKEGVPQPSGPPARKKFVIPLDEDEVPPGVAKPLFRSTQSLPTVDTSAQAAPQTYAEYAISQPLEGAGATCPTGSEPLAGETPNQALKPGAKSNSIIVSPRQRGNPVLKFVRNVPWEFGDVIPDYVLGQSTCALFLSLRYHNLHPDYIHGRLQSLGKNFALRVLLVQVDVKDPQQALKELAKMCILADCTLILAWSPEEAGRYLETYKAYEQKPADLLMEKLEQDFVSRVTECLTTVKSVNKTDSQTLLTTFGSLEQLIAASREDLALCPGLGPQKARRLFDVLHEPFLKVP
binds: [2] | [3] | [4] | [1]

B3: MUS81 (endogenous) (protein, UniProt Q96NY9 1-551)
chain: MAAPVRLGRKRPLPACPNPLFVRWLTEWRDEATRSRRRTRFVFQKALRSLRRYPLPLRSGKEAKILQHFGDGLCRMLDERLQRHRTSGGDHAPDSPSGENSPAPQGRLAEVQDSSMPVPAQPKAGGSGSYWPARHSGARVILLVLYREHLNPNGHHFLTKEELLQRCAQKSPRVAPGSARPWPALRSLLHRNLVLRTHQPARYSLTPEGLELAQKLAESEGLSLLNVGIGPKEPPGEETAVPGAASAELASEAGVQQQPLELRPGEYRVLLCVDIGETRGGGHRPELLRELQRLHVTHTVRKLHVGDFVWVAQETNPRDPANPGELVLDHIVERKRLDDLCSSIIDGRFREQKFRLKRCGLERRVYLVEEHGSVHNLSLPESTLLQAVTNTQVIDGFFVKRTADIKESAAYLALLTRGLQRLYQGHTLRSRPWGTPGNPESGAMTSPNPLCSLLTFSDFNAGAIKNKAQSVREVFARQLMQVRGVSGEKAAALVDRYSTPASLLAAYDACATPKEQETLLSTIKCGRLQRNLGPALSRTLSQLYCSYGPLT
binds: all assays above
